## Assay results

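Luminescence from an EWS-FLI1 target-promoter (NR0B1) reporter, set against a CMV-promoter reporter, two days after silencing single genes in TC32 Ewing sarcoma cells. Each siRNA was applied at 20 nM. A z-score of the log NR0B1-over-CMV signal, less the median of siRNAs with the same seed; more negative means a stronger specific loss of the NR0B1 reporter.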

This is part of the screen; most of the strongest results are not listed here. Sequences are the guide (antisense) strand, without overhang.

Result for UGACAUACACUGUUGACUG against PAQR3 was seed-corrected z-score 0.4614. UUUGGUCAAAUACUCUUCG against BAG3 gave seed-corrected z-score -1.576. For UUCAAGGUCGUCAAAGUCC against KDM4B the result was seed-corrected z-score 0.4711. With AACGGGUUUGAUACAGUGG against LTBP2 the assay gave seed-corrected z-score -0.3887.

AAUUUGUCUAGAAGUGUCU against IFNA5 gave seed-corrected z-score -0.2478. With UCAUUGACCAGGGCUCACC against PRR18 the assay gave seed-corrected z-score 0.953. For UCCACUUUCAUUAUUGACC against AVEN the result was seed-corrected z-score 0.4956. For UCAAGAUCUGUUUUGCUCC against PINX1 the result was seed-corrected z-score 0.3736.

For AUUGGGAAAGUUAUAACGG against STOM the result was seed-corrected z-score 0.1859. With UGUCACUUCAACUUUAGUC against SETSIP the assay gave seed-corrected z-score -0.5846. For UUGAUAUCAUGGAAGGUGC against ADNP2 the result was seed-corrected z-score -0.737. AUACUAGCAACAUCAGGAG against KMT2C read seed-corrected z-score 0.272.

Result for AAACAUACAGCCAUCUUCU against FAM27E5 was seed-corrected z-score -0.03642. AUAGGUAUUCUCAUUAGUG against C11orf1 gave seed-corrected z-score 0.1. Result for UGAUCCUAUACAUUGAGCC against JADE3 was seed-corrected z-score -0.1086. For UCUCAUCCCAGCAUCUAGC against SMC1B the result was seed-corrected z-score -1.032.

AAAAGAACAAGGCUCUCCU against BCL2L15 read seed-corrected z-score -1.277. AAAGUUAACAUGAAAAUCC against NDFIP1 gave seed-corrected z-score 0.8861. With AAUGCUUAUGCGGUACUCG against PCDHGA2 the assay gave seed-corrected z-score -1.587. UUGAUAGUCUCCAUCUUCC against MIPEP gave seed-corrected z-score -0.03736.

With AAUCGGGAAACUACUAUGC against GATS the assay gave seed-corrected z-score 0.653. UGAUUCCUCAUUAGGGUUG against LYVE1 read seed-corrected z-score 0.08748. With UUGAGCCUGACGUAGACUG against CCDC115 the assay gave seed-corrected z-score -0.4318. With UUACUACACCCGUAAGGCC against ZNF419 the assay gave seed-corrected z-score -0.01401.

For AUCGUCAUCAUAGAUGCGC against UBA1 the result was seed-corrected z-score -0.02951. UCAUCCAACAGACAGGUGC against HLA-DMB gave seed-corrected z-score 1.051.

Some entries from above, unchanged:

{"strand": "AAACAUACAGCCAUCUUCU", "target gene": "FAM27E5", "seed-corrected z-score": "-0.03642"}
{"strand": "UUCAAGGUCGUCAAAGUCC", "target gene": "KDM4B", "seed-corrected z-score": "0.4711"}
{"strand": "UCAUCCAACAGACAGGUGC", "target gene": "HLA-DMB", "seed-corrected z-score": "1.051"}

Data taken from PubChem BioAssay AID1159506, deposited by NCATS (2015).